Laboratory results published in paper doi:10.1101/2024.05.02.592151 (bioRxiv, 2024).
Where two headings read alike, the source gives them in different places. No constants are given. Whether binding was seen depends on the method and setting. Some binding calls cover weakened binding; strength is not graded here.

Amino acid sequences for entries named in this document (tags omitted). A change or cut given only in a name is not applied to a line headed by its entry.
UniProt Q8NEM0: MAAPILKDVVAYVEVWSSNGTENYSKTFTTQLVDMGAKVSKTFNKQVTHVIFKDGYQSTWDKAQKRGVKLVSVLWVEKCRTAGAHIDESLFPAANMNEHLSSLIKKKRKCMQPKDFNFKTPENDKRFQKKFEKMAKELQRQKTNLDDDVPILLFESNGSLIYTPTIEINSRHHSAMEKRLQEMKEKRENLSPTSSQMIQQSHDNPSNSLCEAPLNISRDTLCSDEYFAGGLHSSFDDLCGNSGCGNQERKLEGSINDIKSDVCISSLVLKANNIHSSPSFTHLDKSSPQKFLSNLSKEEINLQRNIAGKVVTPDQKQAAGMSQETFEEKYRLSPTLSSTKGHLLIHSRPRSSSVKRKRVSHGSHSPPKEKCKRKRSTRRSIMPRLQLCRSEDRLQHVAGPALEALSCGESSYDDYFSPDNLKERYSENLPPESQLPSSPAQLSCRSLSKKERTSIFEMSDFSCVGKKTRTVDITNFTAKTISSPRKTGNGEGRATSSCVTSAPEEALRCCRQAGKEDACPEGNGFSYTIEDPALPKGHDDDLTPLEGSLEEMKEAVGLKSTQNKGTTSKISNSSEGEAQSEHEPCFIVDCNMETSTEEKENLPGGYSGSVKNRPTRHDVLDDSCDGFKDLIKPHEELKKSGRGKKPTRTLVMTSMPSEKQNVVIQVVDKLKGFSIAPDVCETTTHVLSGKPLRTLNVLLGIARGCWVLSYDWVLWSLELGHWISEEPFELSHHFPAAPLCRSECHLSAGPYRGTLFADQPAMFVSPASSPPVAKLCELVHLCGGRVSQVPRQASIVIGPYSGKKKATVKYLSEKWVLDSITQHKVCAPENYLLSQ
UniProt O95347: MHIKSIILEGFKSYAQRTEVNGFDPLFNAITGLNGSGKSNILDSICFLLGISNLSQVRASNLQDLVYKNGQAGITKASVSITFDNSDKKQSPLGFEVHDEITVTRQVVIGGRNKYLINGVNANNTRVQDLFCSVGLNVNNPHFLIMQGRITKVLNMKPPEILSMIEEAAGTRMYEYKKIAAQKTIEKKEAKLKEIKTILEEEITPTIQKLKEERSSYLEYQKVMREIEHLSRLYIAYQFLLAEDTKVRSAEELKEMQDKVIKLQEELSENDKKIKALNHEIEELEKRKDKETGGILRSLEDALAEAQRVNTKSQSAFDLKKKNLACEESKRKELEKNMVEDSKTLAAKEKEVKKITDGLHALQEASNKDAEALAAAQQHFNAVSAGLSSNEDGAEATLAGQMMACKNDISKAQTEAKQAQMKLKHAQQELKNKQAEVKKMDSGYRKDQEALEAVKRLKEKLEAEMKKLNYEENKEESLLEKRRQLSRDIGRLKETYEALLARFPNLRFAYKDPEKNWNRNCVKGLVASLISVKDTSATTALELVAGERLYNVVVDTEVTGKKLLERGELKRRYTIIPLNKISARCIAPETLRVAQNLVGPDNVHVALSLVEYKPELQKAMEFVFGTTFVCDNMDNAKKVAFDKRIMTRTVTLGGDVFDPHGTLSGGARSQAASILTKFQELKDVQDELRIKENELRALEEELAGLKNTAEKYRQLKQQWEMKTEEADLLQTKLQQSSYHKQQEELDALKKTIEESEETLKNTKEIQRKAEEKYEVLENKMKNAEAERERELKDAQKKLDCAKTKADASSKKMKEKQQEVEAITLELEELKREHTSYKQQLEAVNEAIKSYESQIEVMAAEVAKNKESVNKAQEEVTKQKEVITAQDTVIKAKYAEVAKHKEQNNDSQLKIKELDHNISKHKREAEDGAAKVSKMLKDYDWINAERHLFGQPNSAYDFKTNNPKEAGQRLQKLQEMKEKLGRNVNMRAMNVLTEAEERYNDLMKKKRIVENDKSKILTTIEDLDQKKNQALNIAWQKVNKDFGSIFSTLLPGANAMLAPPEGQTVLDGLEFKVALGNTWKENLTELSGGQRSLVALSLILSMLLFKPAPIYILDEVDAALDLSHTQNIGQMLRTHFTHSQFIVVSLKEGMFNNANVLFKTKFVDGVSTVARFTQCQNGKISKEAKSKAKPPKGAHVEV
UniProt Q9NTJ3: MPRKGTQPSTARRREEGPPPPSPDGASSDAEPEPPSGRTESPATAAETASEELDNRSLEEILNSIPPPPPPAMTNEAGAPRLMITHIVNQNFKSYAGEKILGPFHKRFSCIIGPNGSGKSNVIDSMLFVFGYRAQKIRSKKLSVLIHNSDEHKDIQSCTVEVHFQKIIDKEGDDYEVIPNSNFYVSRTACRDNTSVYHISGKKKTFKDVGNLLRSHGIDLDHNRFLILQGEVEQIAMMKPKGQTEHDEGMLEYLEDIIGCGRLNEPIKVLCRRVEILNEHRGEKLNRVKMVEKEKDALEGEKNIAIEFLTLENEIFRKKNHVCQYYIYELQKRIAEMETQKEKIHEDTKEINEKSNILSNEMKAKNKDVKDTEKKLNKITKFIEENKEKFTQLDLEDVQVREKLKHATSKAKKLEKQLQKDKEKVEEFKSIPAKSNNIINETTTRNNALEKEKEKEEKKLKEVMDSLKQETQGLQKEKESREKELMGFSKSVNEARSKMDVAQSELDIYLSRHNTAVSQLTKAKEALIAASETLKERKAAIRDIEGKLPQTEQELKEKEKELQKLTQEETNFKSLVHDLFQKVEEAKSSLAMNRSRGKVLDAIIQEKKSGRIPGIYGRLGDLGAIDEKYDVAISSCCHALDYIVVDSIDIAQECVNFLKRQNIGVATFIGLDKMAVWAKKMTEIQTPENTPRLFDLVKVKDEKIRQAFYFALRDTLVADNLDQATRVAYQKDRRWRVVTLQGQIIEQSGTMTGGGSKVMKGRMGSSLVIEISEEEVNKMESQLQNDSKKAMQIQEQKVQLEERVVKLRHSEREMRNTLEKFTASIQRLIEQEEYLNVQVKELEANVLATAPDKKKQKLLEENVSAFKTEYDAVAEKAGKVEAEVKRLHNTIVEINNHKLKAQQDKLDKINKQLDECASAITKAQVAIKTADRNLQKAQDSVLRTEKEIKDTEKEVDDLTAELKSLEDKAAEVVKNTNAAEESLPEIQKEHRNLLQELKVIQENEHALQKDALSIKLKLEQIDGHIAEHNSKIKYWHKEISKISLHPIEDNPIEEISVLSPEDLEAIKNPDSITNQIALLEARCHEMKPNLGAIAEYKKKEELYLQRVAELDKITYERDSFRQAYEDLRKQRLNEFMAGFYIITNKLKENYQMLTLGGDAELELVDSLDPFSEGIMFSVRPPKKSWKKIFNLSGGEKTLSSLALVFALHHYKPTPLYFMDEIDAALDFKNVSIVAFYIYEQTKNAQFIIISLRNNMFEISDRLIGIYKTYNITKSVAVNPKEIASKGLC
UniProt Q6IBW4: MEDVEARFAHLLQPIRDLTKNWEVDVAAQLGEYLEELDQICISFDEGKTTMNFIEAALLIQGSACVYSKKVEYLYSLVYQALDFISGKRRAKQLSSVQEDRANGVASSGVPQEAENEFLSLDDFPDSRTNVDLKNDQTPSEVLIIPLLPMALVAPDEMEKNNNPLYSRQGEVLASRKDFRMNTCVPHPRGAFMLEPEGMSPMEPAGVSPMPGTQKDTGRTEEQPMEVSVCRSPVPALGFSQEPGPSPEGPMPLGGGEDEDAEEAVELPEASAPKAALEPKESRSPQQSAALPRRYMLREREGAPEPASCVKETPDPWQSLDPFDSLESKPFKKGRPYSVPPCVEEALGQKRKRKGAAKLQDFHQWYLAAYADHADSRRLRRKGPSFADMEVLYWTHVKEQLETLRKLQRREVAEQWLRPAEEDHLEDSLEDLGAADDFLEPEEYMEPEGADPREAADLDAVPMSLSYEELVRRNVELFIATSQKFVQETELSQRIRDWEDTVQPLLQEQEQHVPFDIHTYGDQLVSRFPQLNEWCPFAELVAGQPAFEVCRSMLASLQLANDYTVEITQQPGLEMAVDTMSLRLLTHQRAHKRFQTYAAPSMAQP
UniProt P42695: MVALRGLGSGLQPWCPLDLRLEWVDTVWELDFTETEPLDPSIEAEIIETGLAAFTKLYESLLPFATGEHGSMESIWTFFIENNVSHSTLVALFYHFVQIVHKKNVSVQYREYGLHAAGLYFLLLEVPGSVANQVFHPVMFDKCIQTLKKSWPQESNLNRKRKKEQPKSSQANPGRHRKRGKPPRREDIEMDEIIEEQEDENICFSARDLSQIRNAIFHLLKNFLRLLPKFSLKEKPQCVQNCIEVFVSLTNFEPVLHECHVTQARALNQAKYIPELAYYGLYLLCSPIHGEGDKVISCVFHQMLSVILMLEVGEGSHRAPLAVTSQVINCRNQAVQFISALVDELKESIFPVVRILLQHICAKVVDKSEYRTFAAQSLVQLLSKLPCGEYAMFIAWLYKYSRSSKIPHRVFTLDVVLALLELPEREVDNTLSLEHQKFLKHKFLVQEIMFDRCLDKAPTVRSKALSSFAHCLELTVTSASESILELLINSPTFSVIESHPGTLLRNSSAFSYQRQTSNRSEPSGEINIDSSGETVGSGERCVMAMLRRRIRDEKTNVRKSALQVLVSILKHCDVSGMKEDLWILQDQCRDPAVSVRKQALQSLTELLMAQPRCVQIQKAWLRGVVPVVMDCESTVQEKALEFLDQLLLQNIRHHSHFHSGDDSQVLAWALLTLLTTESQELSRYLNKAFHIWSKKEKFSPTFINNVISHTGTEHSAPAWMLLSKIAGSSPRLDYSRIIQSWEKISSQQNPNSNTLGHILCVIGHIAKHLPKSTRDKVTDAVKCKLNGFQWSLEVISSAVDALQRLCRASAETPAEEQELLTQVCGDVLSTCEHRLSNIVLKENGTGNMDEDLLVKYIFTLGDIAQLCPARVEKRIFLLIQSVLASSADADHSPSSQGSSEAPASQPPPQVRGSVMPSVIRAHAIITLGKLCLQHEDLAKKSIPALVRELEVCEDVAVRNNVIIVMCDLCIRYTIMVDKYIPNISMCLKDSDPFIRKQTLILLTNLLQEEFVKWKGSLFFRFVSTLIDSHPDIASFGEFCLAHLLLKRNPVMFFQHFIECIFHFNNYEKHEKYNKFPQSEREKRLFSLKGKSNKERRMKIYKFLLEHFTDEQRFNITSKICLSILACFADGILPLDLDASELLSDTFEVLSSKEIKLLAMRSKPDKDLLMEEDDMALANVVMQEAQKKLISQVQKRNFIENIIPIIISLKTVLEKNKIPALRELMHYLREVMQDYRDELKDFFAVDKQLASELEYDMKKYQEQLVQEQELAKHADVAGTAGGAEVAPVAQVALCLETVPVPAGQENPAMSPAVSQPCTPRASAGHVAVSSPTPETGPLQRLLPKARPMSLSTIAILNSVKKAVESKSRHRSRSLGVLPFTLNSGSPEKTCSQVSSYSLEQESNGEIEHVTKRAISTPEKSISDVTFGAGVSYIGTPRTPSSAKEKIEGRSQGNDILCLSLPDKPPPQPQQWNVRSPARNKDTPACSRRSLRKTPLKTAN
UniProt Q86XI2: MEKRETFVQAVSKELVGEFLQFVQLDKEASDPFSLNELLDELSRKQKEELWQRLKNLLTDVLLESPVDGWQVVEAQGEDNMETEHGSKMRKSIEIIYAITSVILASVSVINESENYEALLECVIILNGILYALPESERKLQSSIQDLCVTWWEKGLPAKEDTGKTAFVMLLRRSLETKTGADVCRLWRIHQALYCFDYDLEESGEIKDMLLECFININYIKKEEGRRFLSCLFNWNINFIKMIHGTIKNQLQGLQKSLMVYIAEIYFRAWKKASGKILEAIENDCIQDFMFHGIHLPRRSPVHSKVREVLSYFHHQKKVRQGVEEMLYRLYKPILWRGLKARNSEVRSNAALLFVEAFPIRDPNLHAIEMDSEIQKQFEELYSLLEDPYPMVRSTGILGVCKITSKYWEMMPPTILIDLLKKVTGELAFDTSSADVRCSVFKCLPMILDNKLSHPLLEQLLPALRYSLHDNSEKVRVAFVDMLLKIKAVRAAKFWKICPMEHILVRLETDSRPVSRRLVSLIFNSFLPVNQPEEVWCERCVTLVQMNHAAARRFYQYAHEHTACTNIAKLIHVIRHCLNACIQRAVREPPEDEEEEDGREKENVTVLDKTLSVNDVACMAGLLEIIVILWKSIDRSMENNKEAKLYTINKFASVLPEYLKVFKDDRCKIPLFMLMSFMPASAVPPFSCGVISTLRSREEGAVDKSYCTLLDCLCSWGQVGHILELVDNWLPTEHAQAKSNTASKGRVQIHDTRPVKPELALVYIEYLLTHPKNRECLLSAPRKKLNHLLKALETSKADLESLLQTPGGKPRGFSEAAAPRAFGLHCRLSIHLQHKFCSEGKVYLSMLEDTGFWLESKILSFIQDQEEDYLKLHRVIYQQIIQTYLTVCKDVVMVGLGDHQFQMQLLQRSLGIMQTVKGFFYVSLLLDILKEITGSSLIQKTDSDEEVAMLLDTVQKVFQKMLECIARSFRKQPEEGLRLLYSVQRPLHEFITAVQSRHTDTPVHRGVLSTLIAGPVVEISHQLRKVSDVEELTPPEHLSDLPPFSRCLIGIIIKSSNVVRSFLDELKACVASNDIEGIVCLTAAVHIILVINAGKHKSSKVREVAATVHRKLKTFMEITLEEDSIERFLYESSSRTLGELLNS

How the values were obtained:
[1] = molecular target: T1, 5-FAM-MCPH1_(407-424) peptide (UniProt Q8NEM0); assay: fluorescence polarisation
T1 sequence (peptide, 5-FAM label): CGESSYDDYFSPDNLKER

[2] = molecular target: T1, 5-FAM-MCPH1_(407-424) peptide; assay: fluorescence polarisation; remark: listed apart in the source

binding [1]: binds
binding [2]: binds
Substance: condensin II pentamer (recombinant, human) (from UniProt O95347;Q9NTJ3;Q6IBW4;P42695;Q86XI2) (complex)
